Assay results: paper doi:10.1101/2025.04.05.647266
These are yes or no findings as the source states them, for the method shown. In cells and extracts the contact can be indirect. Binding calls can cover weak binding; strength is not graded here.

Amino acid sequences for entries named in this document (tags omitted). A change or cut given only in a name is not applied to a line headed by its entry.
UniProt P08476: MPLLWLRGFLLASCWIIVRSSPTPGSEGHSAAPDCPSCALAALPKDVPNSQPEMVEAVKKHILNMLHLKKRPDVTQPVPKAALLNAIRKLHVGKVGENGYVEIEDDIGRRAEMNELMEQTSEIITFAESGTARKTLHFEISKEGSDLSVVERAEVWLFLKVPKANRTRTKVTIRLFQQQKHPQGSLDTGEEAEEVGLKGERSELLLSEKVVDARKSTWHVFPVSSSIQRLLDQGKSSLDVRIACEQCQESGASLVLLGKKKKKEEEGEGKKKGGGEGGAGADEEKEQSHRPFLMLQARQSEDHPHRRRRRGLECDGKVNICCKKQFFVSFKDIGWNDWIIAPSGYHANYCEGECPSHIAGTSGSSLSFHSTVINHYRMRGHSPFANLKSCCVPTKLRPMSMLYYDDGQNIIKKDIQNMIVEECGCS

Target: Inhibin beta A (INHBA) (human (endogenous in NUGC-3)) (UniProt P08476)
Test: co-IP

B1: ITGA6 (α6-integrin, CD49f) (protein, UniProt P23229 24-1130)
chain: FNLDTREDNVIRKYGDPGSLFGFSLAMHWQLQPEDKRLLLVGAPRAEALPLQRANRTGGLYSCDITARGPCTRIEFDNDADPTSESKEDQWMGVTVQSQGPGGKVVTCAHRYEKRQHVNTKQESRDIFGRCYVLSQNLRIEDDMDGGDWSFCDGRLRGHEKFGSCQQGVAATFTKDFHYIVFGAPGTYNWKGIVRVEQKNNTFFDMNIFEDGPYEVGGETEHDESLVPVPANSYLGLLFLTSVSYTDPDQFVYKTRPPREQPDTFPDVMMNSYLGFSLDSGKGIVSKDEITFVSGAPRANHSGAVVLLKRDMKSAHLLPEHIFDGEGLASSFGYDVAVVDLNKDGWQDIVIGAPQYFDRDGEVGGAVYVYMNQQGRWNNVKPIRLNGTKDSMFGIAVKNIGDINQDGYPDIAVGAPYDDLGKVFIYHGSANGINTKPTQVLKGISPYFGYSIAGNMDLDRNSYPDVAVGSLSDSVTIFRSRPVINIQKTITVTPNRIDLRQKTACGAPSGICLQVKSCFEYTANPAGYNPSISIVGTLEAEKERRKSGLSSRVQFRNQGSEPKYTQELTLKRQKQKVCMEETLWLQDNIRDKLRPIPITASVEIQEPSSRRRVNSLPEVLPILNSDEPKTAHIDVHFLKEGCGDDNVCNSNLKLEYKFCTREGNQDKFSYLPIQKGVPELVLKDQKDIALEITVTNSPSNPRNPTKDGDDAHEAKLIATFPDTLTYSAYRELRAFPEKQLSCVANQNGSQADCELGNPFKRNSNVTFYLVLSTTEVTFDTPDLDINLKLETTSNQDNLAPITAKAKVVIELLLSVSGVAKPSQVYFGGTVVGEQAMKSEDEVGSLIEYEFRVINLGKPLTNLGTATLNIQWPKEISNGKWLLYLVKVESKGLEKVTCEPQKEINSLNLTESHNSRKKREITEKQIDDNRKFSLFAERKYQTLNCSVNVNCVNIRCPLRGLDSKASLILRSRLWNSTFLEEYSKLNYLDILMRAFIDVTAAAENIRLPNAGTQVRVTVFPSKTVAQYSGVPWWIILVAILAGILMLALLVFILWKCGFFKRSRYDDSVPRYHAVRIRKEEREIKDEKYIDNLEKKQWITKWNENESYS
binding: binds
